One molecule from patent US20020164620A1, “Method for identifying compounds modulating sister chromatid separation” (Boehringer Ingelheim International GmbH, priority 2001, published 2002) can be followed below.

By UniProt entry, the sequences of proteins in these tests, tags left out. Where a name states a change or a piece, a line headed by the entry shows the natural chain unless it says otherwise.
UniProt Q14674: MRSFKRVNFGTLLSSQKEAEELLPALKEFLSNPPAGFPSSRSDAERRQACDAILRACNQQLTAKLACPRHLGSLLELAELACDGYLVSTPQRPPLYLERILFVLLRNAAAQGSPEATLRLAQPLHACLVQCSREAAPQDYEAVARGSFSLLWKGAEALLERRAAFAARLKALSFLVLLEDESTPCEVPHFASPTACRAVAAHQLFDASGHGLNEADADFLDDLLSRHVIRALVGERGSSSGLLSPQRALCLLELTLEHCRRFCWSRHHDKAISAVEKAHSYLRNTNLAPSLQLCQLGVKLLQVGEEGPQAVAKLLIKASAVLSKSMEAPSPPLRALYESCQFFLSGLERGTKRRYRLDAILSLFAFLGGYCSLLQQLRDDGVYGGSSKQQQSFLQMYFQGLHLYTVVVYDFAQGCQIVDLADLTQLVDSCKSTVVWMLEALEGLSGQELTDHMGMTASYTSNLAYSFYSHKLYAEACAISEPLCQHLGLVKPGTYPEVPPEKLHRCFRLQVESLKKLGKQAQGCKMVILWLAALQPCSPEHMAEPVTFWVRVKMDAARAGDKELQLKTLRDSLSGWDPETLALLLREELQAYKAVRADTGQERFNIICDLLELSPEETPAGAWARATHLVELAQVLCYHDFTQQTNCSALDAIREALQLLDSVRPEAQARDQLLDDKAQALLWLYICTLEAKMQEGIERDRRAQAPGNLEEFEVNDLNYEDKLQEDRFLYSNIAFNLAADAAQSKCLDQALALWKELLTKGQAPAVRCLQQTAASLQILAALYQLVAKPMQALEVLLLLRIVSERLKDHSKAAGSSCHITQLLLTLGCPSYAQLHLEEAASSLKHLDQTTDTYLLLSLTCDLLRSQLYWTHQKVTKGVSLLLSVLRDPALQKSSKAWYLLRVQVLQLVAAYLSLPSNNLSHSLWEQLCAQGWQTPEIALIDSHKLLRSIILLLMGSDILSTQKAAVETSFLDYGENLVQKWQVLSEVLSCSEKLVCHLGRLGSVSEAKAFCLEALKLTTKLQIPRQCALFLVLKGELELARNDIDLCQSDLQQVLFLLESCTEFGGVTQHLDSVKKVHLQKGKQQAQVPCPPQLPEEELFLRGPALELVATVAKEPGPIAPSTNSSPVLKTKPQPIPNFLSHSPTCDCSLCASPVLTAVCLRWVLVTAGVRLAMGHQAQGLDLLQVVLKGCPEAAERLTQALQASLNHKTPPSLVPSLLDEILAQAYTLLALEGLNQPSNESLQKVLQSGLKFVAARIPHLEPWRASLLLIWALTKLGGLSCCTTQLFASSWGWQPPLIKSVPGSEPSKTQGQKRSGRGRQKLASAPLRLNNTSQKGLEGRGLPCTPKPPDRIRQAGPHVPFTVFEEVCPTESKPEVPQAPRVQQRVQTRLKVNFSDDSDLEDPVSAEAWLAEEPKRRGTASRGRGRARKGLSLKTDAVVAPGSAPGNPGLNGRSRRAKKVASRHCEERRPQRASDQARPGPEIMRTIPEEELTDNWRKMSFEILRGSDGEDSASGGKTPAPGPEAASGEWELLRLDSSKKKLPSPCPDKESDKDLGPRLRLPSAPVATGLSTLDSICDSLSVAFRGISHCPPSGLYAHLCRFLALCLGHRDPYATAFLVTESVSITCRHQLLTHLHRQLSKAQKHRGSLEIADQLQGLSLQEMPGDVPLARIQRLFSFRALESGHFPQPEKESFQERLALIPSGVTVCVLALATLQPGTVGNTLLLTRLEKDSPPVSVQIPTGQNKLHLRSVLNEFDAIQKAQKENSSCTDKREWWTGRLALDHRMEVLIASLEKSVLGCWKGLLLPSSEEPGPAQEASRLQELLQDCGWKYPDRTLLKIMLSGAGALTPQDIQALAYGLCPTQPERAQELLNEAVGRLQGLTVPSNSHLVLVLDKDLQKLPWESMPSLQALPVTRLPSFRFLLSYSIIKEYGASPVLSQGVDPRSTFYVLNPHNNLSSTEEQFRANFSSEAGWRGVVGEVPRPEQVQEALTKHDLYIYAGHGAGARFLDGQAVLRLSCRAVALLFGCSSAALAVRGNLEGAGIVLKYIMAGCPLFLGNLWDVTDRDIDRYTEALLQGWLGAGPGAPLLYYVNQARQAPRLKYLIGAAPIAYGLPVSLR

This test concerns the target full-length human separase (human) (UniProt Q14674). In words: activation of the separase IP in mitotic Xenopus extract in the presence of the peptide, avidin blot (FIG. 4B, lane 2i).

Results are given in words; binding and its absence hold for the method and conditions named. Some binding calls cover weakened binding; strength is not graded here.

Consider SVEQGR (N-terminal biotin; C-terminus modified to an acyloxymethyl ketone (amk)) [Bio-SVEQGR-amk], for which the binding result is listed as “binds”.
